According to article doi:10.1101/2020.04.03.023721:
These are yes or no findings as the source states them, for the method shown. In cells and extracts the contact can be indirect. Some results given as binding are weak or reduced against the parent protein; the word gives no strength. For some of these results: Where a sequence is shown, tags or fusion partners need not be part of it.

Amino acid sequences for entries named in this document (tags omitted). A change or cut given only in a name is not applied to a line headed by its entry. Residues count along the entry.
UniProt Q96P20, whole entry: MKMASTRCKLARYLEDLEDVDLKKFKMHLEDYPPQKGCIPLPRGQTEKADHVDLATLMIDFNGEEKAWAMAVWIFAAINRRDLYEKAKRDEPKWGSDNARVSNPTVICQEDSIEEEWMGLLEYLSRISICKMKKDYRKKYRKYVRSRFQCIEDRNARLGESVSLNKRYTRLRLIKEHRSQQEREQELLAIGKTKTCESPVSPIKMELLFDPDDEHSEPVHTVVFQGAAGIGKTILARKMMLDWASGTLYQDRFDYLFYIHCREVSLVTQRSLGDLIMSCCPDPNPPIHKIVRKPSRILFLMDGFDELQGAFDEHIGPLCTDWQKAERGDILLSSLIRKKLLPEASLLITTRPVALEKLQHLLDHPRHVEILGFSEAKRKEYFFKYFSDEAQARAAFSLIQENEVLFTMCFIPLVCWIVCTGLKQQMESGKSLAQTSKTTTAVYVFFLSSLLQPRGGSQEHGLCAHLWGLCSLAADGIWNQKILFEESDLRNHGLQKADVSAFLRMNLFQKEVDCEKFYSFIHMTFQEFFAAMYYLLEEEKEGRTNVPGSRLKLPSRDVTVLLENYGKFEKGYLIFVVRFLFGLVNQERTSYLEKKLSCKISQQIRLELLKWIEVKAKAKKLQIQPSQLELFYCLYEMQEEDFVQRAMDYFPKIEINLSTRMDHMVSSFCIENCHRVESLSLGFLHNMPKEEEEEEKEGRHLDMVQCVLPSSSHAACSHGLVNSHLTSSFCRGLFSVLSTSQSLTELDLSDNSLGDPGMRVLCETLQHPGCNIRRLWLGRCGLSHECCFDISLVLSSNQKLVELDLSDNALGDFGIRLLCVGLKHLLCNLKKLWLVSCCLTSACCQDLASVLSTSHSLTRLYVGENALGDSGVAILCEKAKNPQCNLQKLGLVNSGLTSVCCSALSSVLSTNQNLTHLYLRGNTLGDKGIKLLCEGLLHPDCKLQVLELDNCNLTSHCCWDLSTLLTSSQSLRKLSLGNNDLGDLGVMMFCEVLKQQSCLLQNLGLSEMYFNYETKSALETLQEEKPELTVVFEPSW
UniProt Q96P20, 1-93: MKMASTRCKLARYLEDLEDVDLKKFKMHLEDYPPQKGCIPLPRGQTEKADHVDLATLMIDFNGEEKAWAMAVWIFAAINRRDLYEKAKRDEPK
UniProt P49023, whole entry: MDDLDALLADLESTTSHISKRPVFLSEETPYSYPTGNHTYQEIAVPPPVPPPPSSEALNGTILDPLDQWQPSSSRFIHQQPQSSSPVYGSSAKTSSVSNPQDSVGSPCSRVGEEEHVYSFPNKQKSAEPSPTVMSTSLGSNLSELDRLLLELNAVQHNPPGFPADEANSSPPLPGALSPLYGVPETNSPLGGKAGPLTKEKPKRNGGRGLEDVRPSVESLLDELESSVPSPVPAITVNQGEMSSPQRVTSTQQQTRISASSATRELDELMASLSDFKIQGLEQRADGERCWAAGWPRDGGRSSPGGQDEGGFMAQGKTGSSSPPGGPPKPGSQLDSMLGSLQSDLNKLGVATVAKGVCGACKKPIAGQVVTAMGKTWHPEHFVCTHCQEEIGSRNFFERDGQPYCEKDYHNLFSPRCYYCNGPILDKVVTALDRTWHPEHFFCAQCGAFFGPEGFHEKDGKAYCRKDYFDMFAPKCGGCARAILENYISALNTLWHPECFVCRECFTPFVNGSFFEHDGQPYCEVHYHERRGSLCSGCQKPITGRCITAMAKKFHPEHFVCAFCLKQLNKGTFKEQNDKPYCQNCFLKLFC
UniProt Q8R4B8, whole entry: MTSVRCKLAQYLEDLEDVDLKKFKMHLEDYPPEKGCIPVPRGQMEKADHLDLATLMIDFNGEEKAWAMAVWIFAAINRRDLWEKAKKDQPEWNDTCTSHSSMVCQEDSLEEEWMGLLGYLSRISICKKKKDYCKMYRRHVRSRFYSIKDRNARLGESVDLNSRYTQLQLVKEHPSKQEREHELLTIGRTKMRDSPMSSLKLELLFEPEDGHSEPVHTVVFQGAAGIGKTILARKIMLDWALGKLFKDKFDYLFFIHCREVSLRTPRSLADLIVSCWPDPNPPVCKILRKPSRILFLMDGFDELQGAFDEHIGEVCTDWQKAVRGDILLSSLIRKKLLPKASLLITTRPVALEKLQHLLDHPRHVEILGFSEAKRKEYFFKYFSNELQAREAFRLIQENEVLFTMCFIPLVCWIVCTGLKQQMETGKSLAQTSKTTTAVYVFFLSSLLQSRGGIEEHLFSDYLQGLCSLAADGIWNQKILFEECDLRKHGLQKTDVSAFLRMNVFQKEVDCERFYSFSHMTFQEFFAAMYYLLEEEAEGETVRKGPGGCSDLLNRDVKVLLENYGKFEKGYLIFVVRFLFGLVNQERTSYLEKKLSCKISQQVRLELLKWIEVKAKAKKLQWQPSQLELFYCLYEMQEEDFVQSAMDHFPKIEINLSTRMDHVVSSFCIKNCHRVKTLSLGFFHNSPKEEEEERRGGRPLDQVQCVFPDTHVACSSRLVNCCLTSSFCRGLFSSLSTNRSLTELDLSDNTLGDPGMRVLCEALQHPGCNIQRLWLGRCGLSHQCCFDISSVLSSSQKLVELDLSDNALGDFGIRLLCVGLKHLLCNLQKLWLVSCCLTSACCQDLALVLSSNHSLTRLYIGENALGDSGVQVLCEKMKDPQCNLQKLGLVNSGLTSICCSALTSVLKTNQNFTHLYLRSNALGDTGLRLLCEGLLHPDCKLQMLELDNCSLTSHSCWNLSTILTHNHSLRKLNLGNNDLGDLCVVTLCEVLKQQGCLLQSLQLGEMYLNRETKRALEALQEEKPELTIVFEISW
UniProt Q8VI36, whole entry: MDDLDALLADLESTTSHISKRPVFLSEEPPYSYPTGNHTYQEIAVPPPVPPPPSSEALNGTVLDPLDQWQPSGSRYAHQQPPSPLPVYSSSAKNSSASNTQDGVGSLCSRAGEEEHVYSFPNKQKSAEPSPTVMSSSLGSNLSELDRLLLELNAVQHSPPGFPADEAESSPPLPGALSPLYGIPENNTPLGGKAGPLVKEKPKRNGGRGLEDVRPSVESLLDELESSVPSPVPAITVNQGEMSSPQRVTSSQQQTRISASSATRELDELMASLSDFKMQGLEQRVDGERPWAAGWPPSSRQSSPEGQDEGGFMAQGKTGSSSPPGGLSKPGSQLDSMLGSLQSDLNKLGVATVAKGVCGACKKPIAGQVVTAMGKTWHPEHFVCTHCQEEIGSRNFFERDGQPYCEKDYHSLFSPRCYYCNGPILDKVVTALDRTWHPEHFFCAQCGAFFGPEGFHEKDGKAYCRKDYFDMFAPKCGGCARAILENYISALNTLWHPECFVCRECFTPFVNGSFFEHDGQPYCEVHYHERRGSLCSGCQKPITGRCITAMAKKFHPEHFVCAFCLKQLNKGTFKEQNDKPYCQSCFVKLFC

Key:
[1] = target: Flag-NLRP3 (human) (UniProt Q96P20); assay: co-IP
[2] = target: T1, Flag-P2X7 (UniProt Q99572); assay: co-IP
T1 sequence: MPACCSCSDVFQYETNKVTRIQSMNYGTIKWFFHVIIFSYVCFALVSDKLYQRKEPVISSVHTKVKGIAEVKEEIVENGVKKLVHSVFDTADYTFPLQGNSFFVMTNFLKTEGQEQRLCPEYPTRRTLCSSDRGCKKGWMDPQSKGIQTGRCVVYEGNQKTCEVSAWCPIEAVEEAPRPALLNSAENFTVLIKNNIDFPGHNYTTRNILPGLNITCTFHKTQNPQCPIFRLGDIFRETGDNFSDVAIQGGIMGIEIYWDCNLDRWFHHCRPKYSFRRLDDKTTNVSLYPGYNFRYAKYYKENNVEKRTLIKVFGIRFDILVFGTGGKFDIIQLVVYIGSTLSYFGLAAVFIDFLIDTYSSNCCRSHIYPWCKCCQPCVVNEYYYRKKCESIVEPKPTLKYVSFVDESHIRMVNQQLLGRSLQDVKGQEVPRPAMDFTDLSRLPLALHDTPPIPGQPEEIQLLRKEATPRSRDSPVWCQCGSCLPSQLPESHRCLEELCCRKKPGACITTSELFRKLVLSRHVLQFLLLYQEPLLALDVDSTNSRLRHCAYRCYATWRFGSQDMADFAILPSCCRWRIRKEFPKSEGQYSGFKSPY

[3] = target: T2, Flag-UPS13 (human) (UniProt Q92995); assay: co-IP
T2 sequence: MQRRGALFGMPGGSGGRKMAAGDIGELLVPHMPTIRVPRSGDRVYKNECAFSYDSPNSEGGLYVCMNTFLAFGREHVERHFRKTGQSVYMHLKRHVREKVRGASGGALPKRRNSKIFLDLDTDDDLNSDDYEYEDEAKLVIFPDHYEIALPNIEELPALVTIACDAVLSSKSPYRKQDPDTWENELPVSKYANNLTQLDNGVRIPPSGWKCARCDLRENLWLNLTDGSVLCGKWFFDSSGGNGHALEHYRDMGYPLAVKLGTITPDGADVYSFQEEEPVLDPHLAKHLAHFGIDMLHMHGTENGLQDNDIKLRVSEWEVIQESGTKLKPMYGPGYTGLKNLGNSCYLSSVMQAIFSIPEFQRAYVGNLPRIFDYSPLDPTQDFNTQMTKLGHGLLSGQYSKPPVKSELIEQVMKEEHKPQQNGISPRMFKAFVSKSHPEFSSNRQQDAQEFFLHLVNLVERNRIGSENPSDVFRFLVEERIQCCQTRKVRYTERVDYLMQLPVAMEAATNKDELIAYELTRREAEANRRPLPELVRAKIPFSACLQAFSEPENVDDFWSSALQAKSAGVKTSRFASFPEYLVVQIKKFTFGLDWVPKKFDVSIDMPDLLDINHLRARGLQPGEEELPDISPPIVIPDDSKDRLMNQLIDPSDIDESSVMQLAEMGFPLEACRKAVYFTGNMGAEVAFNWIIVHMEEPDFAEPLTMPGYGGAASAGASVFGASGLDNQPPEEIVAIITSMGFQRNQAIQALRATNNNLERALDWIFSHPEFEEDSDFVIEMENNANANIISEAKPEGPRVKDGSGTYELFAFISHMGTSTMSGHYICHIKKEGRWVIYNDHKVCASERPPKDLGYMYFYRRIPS

[4] = target: GST-Paxillin (human) (UniProt P49023); assay: pull-down
[5] = target: NLRP3 (endogenous, mouse BMDMs) (mouse (endogenous in BMDMs of C57BL/6 mice)) (UniProt Q8R4B8); assay: co-IP
[6] = target: NLRP3 (endogenous, THP-1 macrophages) (human (endogenous in THP-1)) (UniProt Q96P20); assay: co-IP
[7] = target: T3, P2X7 (endogenous, THP-1 macrophages) (human (endogenous in THP-1)) (UniProt Q99572); assay: co-IP
T3 sequence: T1 sequence

[8] = target: T4, Flag-UPS13(1-300) (human) (UniProt Q92995); assay: co-IP
T4 sequence: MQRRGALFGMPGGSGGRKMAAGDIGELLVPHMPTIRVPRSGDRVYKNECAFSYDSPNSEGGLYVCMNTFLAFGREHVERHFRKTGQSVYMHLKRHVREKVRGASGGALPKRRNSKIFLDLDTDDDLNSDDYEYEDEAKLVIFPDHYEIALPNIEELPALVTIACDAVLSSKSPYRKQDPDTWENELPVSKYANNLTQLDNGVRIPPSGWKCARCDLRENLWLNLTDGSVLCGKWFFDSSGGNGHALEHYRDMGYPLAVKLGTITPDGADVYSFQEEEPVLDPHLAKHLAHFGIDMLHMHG

[9] = target: T5, Flag-UPS13(301-624) (human) (UniProt Q92995); assay: co-IP
T5 sequence: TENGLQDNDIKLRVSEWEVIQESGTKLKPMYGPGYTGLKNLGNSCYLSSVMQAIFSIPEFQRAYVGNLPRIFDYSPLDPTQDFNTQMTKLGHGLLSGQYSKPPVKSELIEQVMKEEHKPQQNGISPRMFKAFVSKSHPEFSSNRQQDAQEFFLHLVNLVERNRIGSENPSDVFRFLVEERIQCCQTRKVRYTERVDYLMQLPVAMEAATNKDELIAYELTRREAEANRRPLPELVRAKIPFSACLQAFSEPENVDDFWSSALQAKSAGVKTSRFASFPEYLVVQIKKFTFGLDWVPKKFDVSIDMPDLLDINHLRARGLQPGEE

[10] = target: T6, Flag-UPS13(301-863) (human) (UniProt Q92995); assay: co-IP
T6 sequence: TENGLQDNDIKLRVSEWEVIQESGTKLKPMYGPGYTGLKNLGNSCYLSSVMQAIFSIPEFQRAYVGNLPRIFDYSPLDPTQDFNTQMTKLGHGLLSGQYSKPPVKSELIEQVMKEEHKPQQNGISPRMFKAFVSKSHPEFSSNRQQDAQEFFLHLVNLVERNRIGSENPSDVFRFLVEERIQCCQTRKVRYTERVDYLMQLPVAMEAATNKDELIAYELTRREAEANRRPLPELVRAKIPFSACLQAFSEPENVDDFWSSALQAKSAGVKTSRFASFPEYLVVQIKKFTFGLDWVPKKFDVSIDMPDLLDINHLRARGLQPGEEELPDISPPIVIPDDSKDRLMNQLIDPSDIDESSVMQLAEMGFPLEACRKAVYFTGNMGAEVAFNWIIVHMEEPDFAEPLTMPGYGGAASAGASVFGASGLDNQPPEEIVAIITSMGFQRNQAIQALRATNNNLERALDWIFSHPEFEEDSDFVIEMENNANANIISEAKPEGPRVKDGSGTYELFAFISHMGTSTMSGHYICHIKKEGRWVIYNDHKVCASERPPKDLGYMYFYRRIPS

[11] = target: T7, Flag-UPS13(625-863) (human) (UniProt Q92995); assay: co-IP
T7 sequence: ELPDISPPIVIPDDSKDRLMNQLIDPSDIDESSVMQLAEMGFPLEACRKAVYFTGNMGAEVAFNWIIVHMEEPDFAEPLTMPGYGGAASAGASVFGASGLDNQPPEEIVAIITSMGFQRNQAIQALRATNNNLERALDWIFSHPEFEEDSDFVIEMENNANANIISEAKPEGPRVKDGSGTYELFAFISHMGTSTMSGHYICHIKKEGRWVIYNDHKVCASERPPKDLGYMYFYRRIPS

Substance: HA-Paxillin(Y31A) (from UniProt P49023 1-591)
- binding [1]: binds
- binding [2]: binds
- binding [3]: no binding

Substance: Flag-NLRP3 (from UniProt Q96P20 1-1036)
- binding [4]: binds

Substance: HA-PYRIN (from UniProt Q96P20 1-93) (domain or fragment)
- binding [3]: no binding

Substance: Paxillin (endogenous, mouse BMDMs) (from UniProt Q8VI36 1-591)
- binding [5]: binds

Substance: HA-Paxillin(Y118A) (from UniProt P49023 1-591)
- binding [1]: no binding
- binding [2]: binds
- binding [3]: binds

Substance: Paxillin (endogenous, THP-1 macrophages) (from UniProt P49023 1-591)
- binding [6]: binds
- binding [7]: binds

Substance: HA-NLRP3 (from UniProt Q96P20 1-1036)
- binding [3]: binds
- binding [8]: no binding
- binding [9]: no binding
- binding [10]: binds
- binding [11]: binds
